Data as given in PubChem BioAssay AID1259308 (NCATS, 2017)

- Test: 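Candidate targets for better recombinant protein yield in mammalian cells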 (primary screen)
- Cells: human HEK293 embryonic kidney cells stably expressing firefly luciferase (HEK-CMV-Luc2-Hygro)
- Reagent: single siRNA against human genes, 0.8 pmol siRNA per well
- Duration: 72 h
- Read-out: 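Luciferase light (ONE-Glo) measured on one replicate plate set and viability (CellTiter-Glo) on the other, scaled to a negative control siRNA, with robust z-scores and luciferase per cell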
- Scale: total luciferase, z-score: higher = more reporter protein produced
- Active means: 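An siRNA counts as active if its total luciferase robust z-score exceeds 3; genes with two or more such siRNAs out of three were retested with fresh siRNAs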
- Meaning of the calls: active = raised luciferase; inactive = no rise
The deposit covers about 59,000 reagents; shown is an unselected part. Of all reagents, about 1,510 (2.6%) were called active. 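Calls use total luciferase alone and ignore viability, so some active siRNAs may act by altering cell number.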 The numbers tell different reagents against one gene apart. Further read-outs or replicates are left out here.

target	siRNA no.	total luciferase, z-score	Call
DNAJC9 (DnaJ heat shock protein family (Hsp40) member C9)	1	0.503	inactive
DNAJC9 (DnaJ heat shock protein family (Hsp40) member C9)	2	-1.84	inactive
DNAJC9 (DnaJ heat shock protein family (Hsp40) member C9)	3	-0.154	inactive
DNAJC25 (DnaJ heat shock protein family (Hsp40) member C25)	1	1.32	inactive
DNAJC25 (DnaJ heat shock protein family (Hsp40) member C25)	2	0.389	inactive
DNAJC25 (DnaJ heat shock protein family (Hsp40) member C25)	3	-0.746	inactive
ERCC1 (ERCC excision repair 1, endonuclease non-catalytic subunit)	1	1.46	inactive
ERCC1 (ERCC excision repair 1, endonuclease non-catalytic subunit)	2	-0.979	inactive
ERCC1 (ERCC excision repair 1, endonuclease non-catalytic subunit)	3	-1.24	inactive
KLF9 (KLF transcription factor 9)	1	-1.6	inactive
KLF9 (KLF transcription factor 9)	2	0.612	inactive
KLF9 (KLF transcription factor 9)	3	0.777	inactive
EYA2 (EYA transcriptional coactivator and phosphatase 2)	1	0.15	inactive
EYA2 (EYA transcriptional coactivator and phosphatase 2)	2	-0.22	inactive
EYA2 (EYA transcriptional coactivator and phosphatase 2)	3	0.347	inactive
AP5B1 (adaptor related protein complex 5 subunit beta 1)	1	-2.15	inactive
AP5B1 (adaptor related protein complex 5 subunit beta 1)	2	2.97	inactive
AP5B1 (adaptor related protein complex 5 subunit beta 1)	3	0.775	inactive
DPY19L4 (dpy-19 like 4)	1	1.36	inactive
DPY19L4 (dpy-19 like 4)	2	-1.01	inactive
DPY19L4 (dpy-19 like 4)	3	0.913	inactive
MPC1	1	1.21	inactive
MPC1	2	3.54	active
MPC1	3	1.28	inactive
SLC7A5	1	-2.22	inactive
SLC7A5	2	2.27	inactive
SLC7A5	3	-0.763	inactive
LINC00997 (long independently transcribed non-coding RNA 997)	1	0.371	inactive
LINC00997 (long independently transcribed non-coding RNA 997)	2	-0.362	inactive
LINC00997 (long independently transcribed non-coding RNA 997)	3	-0.842	inactive
TECPR1 (tectonin beta-propeller repeat containing 1)	1	0.263	inactive
TECPR1 (tectonin beta-propeller repeat containing 1)	2	-0.321	inactive
TECPR1 (tectonin beta-propeller repeat containing 1)	3	0.00699	inactive

Single entries from the entries so far:
DPY19L4 (dpy-19 like 4) #1, Call = inactive
Value for KLF9 (KLF transcription factor 9) #3 under “Call”: inactive
DNAJC9 (DnaJ heat shock protein family (Hsp40) member C9) #2, total luciferase, z-score = -1.84

Additional records follow.
target	siRNA no.	total luciferase, z-score	Call
FOXJ3 (forkhead box J3)	1	0.772	inactive
FOXJ3 (forkhead box J3)	2	-0.00789	inactive
FOXJ3 (forkhead box J3)	3	0.0586	inactive
UBL3 (ubiquitin like 3)	1	-0.427	inactive
UBL3 (ubiquitin like 3)	2	-1.4	inactive
UBL3 (ubiquitin like 3)	3	3.74	active
CDPF1 (cysteine rich DPF motif domain containing 1)	1	0.832	inactive
CDPF1 (cysteine rich DPF motif domain containing 1)	2	-0.367	inactive
CDPF1 (cysteine rich DPF motif domain containing 1)	3	0.966	inactive
RAD1 (RAD1 checkpoint DNA exonuclease)	1	0.874	inactive
RAD1 (RAD1 checkpoint DNA exonuclease)	2	-0.209	inactive
RAD1 (RAD1 checkpoint DNA exonuclease)	3	0.184	inactive
HMGCS1 (3-hydroxy-3-methylglutaryl-CoA synthase 1)	1	-0.134	inactive
HMGCS1 (3-hydroxy-3-methylglutaryl-CoA synthase 1)	2	-1.37	inactive
HMGCS1 (3-hydroxy-3-methylglutaryl-CoA synthase 1)	3	-1.13	inactive
TREH (trehalase)	1	0.475	inactive
TREH (trehalase)	2	1.02	inactive
TREH (trehalase)	3	0.0815	inactive
ESRRA (estrogen related receptor alpha)	1	-1.54	inactive
ESRRA (estrogen related receptor alpha)	2	-0.597	inactive
ESRRA (estrogen related receptor alpha)	3	1.05	inactive
MARCHF1 (membrane associated ring-CH-type finger 1)	1	-0.0727	inactive
MARCHF1 (membrane associated ring-CH-type finger 1)	2	0.708	inactive
MARCHF1 (membrane associated ring-CH-type finger 1)	3	-0.687	inactive
